# Assay results: patent US20220233572
# The chains behind the UniProt entries cited, without tags or fusion partners. Residues count along the entry.
# UniProt O00206, 24-839: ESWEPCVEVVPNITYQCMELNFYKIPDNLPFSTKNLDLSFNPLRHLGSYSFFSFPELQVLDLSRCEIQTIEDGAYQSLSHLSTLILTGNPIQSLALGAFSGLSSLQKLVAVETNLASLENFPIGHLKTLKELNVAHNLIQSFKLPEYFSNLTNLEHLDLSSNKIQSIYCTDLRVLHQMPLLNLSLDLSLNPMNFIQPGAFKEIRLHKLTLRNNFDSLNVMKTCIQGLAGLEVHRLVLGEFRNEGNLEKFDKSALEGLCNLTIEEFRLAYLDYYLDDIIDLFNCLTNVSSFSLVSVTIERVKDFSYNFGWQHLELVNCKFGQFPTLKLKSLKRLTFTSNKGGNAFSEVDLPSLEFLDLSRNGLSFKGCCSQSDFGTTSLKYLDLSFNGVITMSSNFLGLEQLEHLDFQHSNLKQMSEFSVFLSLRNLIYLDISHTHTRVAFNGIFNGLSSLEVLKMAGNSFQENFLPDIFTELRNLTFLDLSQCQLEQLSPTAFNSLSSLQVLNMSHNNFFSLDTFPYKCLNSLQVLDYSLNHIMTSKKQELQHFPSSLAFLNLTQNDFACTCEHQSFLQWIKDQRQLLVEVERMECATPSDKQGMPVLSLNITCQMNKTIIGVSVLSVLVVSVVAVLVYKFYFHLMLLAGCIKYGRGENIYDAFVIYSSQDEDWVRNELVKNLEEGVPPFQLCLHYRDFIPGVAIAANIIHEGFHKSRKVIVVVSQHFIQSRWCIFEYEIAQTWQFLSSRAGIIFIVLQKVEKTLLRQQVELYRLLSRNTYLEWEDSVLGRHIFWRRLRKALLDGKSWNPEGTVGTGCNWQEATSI
# UniProt O60602, 21-858: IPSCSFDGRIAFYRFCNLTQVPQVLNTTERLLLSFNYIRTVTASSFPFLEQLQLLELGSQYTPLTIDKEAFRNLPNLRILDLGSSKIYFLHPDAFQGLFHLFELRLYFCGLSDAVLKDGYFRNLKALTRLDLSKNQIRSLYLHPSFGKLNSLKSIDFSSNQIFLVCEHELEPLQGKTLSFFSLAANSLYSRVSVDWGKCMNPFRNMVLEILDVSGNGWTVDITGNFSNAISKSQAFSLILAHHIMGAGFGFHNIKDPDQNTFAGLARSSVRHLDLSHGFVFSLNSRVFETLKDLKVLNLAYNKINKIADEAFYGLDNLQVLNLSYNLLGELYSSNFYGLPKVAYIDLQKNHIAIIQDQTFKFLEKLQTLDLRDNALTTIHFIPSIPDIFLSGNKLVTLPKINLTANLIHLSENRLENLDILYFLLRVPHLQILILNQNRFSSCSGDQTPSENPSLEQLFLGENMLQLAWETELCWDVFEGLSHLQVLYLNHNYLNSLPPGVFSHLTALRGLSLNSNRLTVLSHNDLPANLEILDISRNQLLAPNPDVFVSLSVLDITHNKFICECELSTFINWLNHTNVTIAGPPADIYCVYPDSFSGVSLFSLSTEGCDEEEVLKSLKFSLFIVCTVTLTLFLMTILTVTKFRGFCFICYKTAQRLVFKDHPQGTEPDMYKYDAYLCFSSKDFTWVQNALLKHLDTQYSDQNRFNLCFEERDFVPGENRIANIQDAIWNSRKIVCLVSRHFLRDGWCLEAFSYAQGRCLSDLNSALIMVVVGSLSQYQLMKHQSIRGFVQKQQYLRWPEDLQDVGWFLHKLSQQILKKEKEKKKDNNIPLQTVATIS
# UniProt O60603, 21-784: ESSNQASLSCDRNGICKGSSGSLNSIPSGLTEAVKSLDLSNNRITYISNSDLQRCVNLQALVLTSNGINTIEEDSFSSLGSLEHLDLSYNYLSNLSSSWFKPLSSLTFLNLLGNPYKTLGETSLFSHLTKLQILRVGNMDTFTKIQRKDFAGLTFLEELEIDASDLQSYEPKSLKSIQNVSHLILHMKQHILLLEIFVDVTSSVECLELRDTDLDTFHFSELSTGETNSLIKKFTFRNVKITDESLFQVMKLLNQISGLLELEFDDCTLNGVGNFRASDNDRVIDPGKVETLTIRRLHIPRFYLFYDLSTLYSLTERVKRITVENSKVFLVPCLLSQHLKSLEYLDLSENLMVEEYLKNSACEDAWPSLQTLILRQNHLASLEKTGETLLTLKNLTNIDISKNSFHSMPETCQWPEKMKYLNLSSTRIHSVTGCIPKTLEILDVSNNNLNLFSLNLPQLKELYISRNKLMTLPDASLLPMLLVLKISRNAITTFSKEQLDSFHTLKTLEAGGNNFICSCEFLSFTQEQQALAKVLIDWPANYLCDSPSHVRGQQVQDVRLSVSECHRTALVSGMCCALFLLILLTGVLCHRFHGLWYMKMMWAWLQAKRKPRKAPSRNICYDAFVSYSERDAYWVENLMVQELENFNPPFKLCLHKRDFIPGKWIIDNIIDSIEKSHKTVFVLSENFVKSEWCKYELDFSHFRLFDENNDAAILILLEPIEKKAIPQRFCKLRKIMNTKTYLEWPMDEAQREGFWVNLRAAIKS
# How the values were obtained:
# [1] = target: TLR4 (hTLR-4) (Homo sapiens) (UniProt O00206); test: activity in cells; details: protein on the cell surface, single-stranded DNA
# [2] = target: TLR5 (hTLR5) (Homo sapiens) (UniProt O60602); test: activity in cells; details: 20 and 200 nM; no agonism, no antagonism of FLAT-ST activation; protein on the cell surface; protein details: HEK-blue-hTLR5 cells; single-stranded DNA; variant of ApTLR#4F
# [3] = target: TLR2 (hTLR2) (Homo sapiens) (UniProt O60603); test: activity in cells; details: 20 and 200 nM; no agonism, no antagonism of Pam3 activation; protein on the cell surface; protein details: HEK-blue-hTLR2 cells; single-stranded DNA; variant of ApTLR#4F
# [4] = target: T1, TLR4 (mouse, on blood cells or peritoneal macrophages) (Mus musculus) (UniProt Q9QUK6); test: flow cytometry; details: labelled aptamer 0.9 mg/kg i.v.; detected on blood cells (granulocyte region) of TLR4+/+ but not TLR4-/- mice; protein on the cell surface; label: Alexa Fluor 488 in binding assays; single-stranded DNA; variant of ApTLR#4F
# T1 sequence (looked up, limits assumed): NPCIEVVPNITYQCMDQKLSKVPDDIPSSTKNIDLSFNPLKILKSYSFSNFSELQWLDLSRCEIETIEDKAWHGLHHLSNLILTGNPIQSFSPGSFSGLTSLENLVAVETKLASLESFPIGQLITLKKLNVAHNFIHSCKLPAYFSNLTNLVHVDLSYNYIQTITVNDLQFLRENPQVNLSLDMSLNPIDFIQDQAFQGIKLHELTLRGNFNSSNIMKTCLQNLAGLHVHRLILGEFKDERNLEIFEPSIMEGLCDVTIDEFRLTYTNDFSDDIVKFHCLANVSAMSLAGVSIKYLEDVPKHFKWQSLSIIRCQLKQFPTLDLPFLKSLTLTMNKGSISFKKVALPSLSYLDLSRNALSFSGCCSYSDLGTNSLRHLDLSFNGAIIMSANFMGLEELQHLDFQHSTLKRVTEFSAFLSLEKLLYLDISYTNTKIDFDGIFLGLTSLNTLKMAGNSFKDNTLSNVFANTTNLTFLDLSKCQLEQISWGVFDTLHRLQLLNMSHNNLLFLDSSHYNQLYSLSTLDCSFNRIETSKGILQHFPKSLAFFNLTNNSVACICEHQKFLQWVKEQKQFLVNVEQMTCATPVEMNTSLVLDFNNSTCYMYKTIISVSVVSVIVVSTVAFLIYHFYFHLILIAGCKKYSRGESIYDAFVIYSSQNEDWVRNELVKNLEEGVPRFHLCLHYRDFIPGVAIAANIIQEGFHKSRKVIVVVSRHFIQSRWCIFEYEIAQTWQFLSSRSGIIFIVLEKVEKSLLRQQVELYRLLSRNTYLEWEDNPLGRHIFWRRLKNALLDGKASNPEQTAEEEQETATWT
sequence,measurement,setting,value
CCGGCACGGGACAAGGCGCGGGACGGCGTAGATCAGGTCGACACC [ApTLR#1RT],functional effect of the aptamer,"[1]; antagonism of LPS- and DAMP-induced SEAP maintained at 20 nM, variant of ApTLR#1R",active
GCGGATGAAGACTGGTGTGCCAATAAACCATATCGCCGCGTTAGCATGTACTCGGTTGGCCCTAAATACGAGCAAC [ApTLR#4F],functional effect of the aptamer,"[1]; maximal at 200 nM, LPS-induced SEAP, 38x(AG) ssDNA as control",30 % inhibition
GGTGTGCCAATAAACCATATCGCCGCGTTAGCATGTACTCGGTTGGCCCTAAATACGAG [ApTLR#4FT (ApTOLL)],functional effect of the aptamer,[2],not active
same,functional effect of the aptamer,"[1]; antagonism of LPS- and DAMP-induced SEAP maintained at 20 nM, variant of ApTLR#4F",active
same,functional effect of the aptamer,[3],not active
same,binding result,[4],binds
GTTGCTCGTATTTAGGGCCACCGGCACGGGACAAGGCGCGGGACGGCGTAGATCAGGTCGACACCAGTCTTCATCCGC [ApTLR#1R],functional effect of the aptamer,"[1]; maximal at 20 nM, LPS-induced SEAP, 38x(AG) ssDNA as control",30 % inhibition

# For some of these results: No signal at the amounts used counts as a negative. For some of these results: Where cells or extracts were used, other partners may take part. For some of these results: Where a protein sequence is shown, tags need not be part of it. For some of these results: For at least one entry, the source does not settle the construct or the ends of the probe.
